Literature values in patent publication US20110288064A1, “METHODS FOR TREATING DISORDERS ASSOCIATED WITH […] IN A MAMMAL” (priority 2005, published 2011).
Some of these results come from one statement about several compounds together.

Details: genotype-confirmed hoFH patients, maximal dose of statin, 80 mg/day

CC(C)c1c(C(=O)Nc2ccccc2)c(-c2ccccc2)c(-c2ccc(F)cc2)n1CC[C@@H](O)C[C@@H](O)CC(=O)O [atorvastatin]
mean LDL-C reduction: less than 20%
